A short description of the assay: qHTS Assay to Find Inhibitors of Chronic Active B-Cell Receptor Signaling. Particulars: ABC-DLBCL IkBa-CBG/CBR reporter, luminescence ratio (green luciferase fused to IkBa over red control in TMD8 lymphoma cells), 4 h. An outline of the steps:
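TMD8 ABC-DLBCL cells carrying doxycycline-inducible green luciferase fused to IkappaBalpha plus unfused red luciferase were exposed to compounds (up to 46 uM) for 4 hrs at 37C. Activity came from the overlap-corrected green/red luminescence ratio.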

The mark [1] stands for this setting: measured here: CBR red luminescence, cell number.
Where [2] appears, read: measured here: IkBa-CBG green luminescence.

Some of the results follow. These are further read-outs of the screen, such as a control signal, another cell line or another target. No call is given for them. Compounds called inactive in the main read-out are mostly missing here. The note in brackets gives the kind of curve behind each potency; many fits are weak.

Turning to `Cc1nc2sc(C(c3ccccc3)N3CCOCC3)c(O)n2n1` (configuration not stated), the AC50 (usually the concentration giving half of the maximal activity seen) under setting [1] is 10.3 µM [rising, partial curve].
Regarding `Cc1nc(SCc2ccccc2)nc2c1CCC2`, under setting [1], the AC50 is 3.16 µM [rising, full curve].
Same read-out and setting: for `COC(=O)c1c(C(=O)OC)c2ccncn2c1Cl` the value was 2.06 µM [falling, single point].
`Cc1ccc(C)c(NC(=O)COC(=O)CNC(=O)c2ccccc2Cl)c1`: the AC50 under setting [1] is 20 µM [rising, single point].
Take `CN(C)C(CNC(=O)c1cccc(S(=O)(=O)N2CC3(C)CC2CC(C)(C)C3)c1)c1ccco1` (configuration not stated): the AC50 under setting [1] is 0.708 µM [falling, full curve, poor fit].
The same measure, in the same setting: in the case of `CCSc1nnc(NC(=O)c2ccccc2)s1` it was 7.31 µM [falling, partial curve]; in that of `COc1ccc(C(=O)OCc2c(C)noc2C)cc1`, 1.58 µM [rising, partial curve, poor fit].
`CCOC(=O)c1ccc(COC(=O)c2cc3ccccc3oc2=O)o1`: under setting [1], the AC50 was 0.92 µM [rising, full curve, poor fit].
Still for that read-out and setting: for `COc1cc(OC)cc(C(=O)Nc2ccc3nc4n(c(=O)c3c2)CCCC4)c1` the value was 3.98 µM [falling, full curve]; for `Nc1nc(SCc2ccccc2)ns1`, 23.1 µM [rising, partial curve, poor fit]; for `Cc1noc(C)c1C(=O)OCC(=O)c1cc(C)n(Cc2ccccc2Cl)c1C`, 29.1 µM [falling, single point].
With `O=C(Nc1nc2ccc(F)cc2s1)c1cccc(S(=O)(=O)N2CCc3ccccc32)c1`, under setting [2], the AC50 is 2.59 µM [rising, full curve, poor fit].
Turning to `COC(=O)c1ccccc1NC(=O)Cn1nnc(-c2ccc(OC)cc2)n1`, the AC50 under setting [1] was 32.6 µM [falling, partial curve, poor fit].
On the same count and under the same terms, for `Cc1cc(C(F)(F)F)nn1CC(=O)N1CCOCC1` the value was 3.66 µM [falling, single point]; for `CCCCNC(=S)NNC(=O)c1csc(C)c1C`, 2.31 µM [rising, partial curve].
The same measure, in the same setting: in the case of `CC1(C)CC(=O)C=C(Nc2ccc(OCC(F)(F)C(F)F)cc2)C1` it was 32.6 µM [falling, single point]; in that of `Cc1ccc(S(=O)(=O)N2CCOCC2)cc1C(=O)Nc1ccc(N2CCCCCC2)cc1`, 10.3 µM [falling, partial curve].
Still for that read-out and setting: for `Cc1ccc(S(=O)(=O)n2c(CN3CCCC(C)C3)nc3ccccc32)cc1` (configuration not stated) the value was 29.1 µM [rising, single point]; for `Cc1nn(Cc2ccc(Cl)cc2Cl)c(Cl)c1/C=C/C(=O)OCC(=O)NCC(F)(F)F`, 2.91 µM [rising, single point].
As for `CCOc1ccc(N(CC(=O)NCc2ccccc2)S(=O)(=O)c2ccc(C)cc2)cc1`, the AC50 under setting [1] is 20 µM [falling, single point].
For the molecule `Cc1cc(C)n(CC(=O)NN)n1`, under setting [1], the AC50 was 11.2 µM [falling, partial curve].
Take `CCOC(=O)N1CCN(CCC(=O)c2ccc(OC)cc2)CC1`: the AC50 under setting [1] is 20 µM [falling, partial curve].
Still for that read-out and setting: in the case of `COc1cccc(/C=N/NC(=O)c2cccc([N+](=O)[O-])c2)c1OS(=O)(=O)c1ccccc1` it was 17.8 µM [rising, single point].
Consider `Cc1ccc(NC(=O)CSc2nc(N)cc(=O)[nH]2)cc1S(=O)(=O)N1CCCCC1`, for which the concentration at half-maximal activity (AC50) under setting [1] was 23.1 µM [rising, partial curve, poor fit].
Same read-out and setting: in the case of `CCC(=O)N1CCN(c2ccccc2NC(=O)COc2ccccc2Cl)CC1` it was 4.61 µM [falling, full curve, poor fit].
For `COc1ccc(C2C=C(c3ccccc3)Nc3nnnn32)cc1` (configuration not stated), under setting [1], the concentration at half-maximal activity (AC50) was 11.2 µM [rising, partial curve, poor fit].
On to `CCCc1nc2ccccc2c(C(=O)OCC(=O)NCc2ccc3c(c2)OCO3)c1CC`, for which the AC50 under setting [1] is 29.1 µM [falling, single point].
For the molecule `Cc1ccccc1-c1nsc(SCC(=O)NCc2ccc3c(c2)OCO3)n1`, the AC50 under setting [1] is 6.51 µM [falling, partial curve, poor fit].
Consider `CC(=O)c1cccc(N/C=C\C(=O)c2ccc(C)cc2)c1`, for which the AC50 under setting [1] was 32.6 µM [falling, single point].
On the same count and under the same terms, in the case of `Cc1[nH]c2ccccc2c1/C=C/C(=O)c1ccccc1` it was 4.11 µM [falling, single point]; in that of `Cc1noc(C)c1COc1ccccc1C(=O)N(C)Cc1ccc(C(C)(C)C)cc1`, 29.1 µM [falling, single point]; in that of `CCOC(=O)C1CCCN(Cc2cc(OC)c(O)c(OC)c2)C1` (configuration not stated), 23.1 µM [rising, single point].
As to `COc1ccccc1N=c1oc2cc(O)ccc2cc1C(=O)NCC1CCCO1` (configuration not stated), the AC50 under setting [1] was 11.2 µM [falling, partial curve, poor fit].
For `CCN(CC)c1ccc(NC(=S)NC(=O)c2cccs2)cc1`, under setting [1], the half-maximal activity concentration (AC50) is 8.91 µM [rising, partial curve, poor fit].
Consider `N/C(=N\OC(=O)Cc1ccccc1)c1ccncc1`, for which, under setting [1], the AC50 was 3.16 µM [rising, partial curve, poor fit].
As to `COc1ccc(-c2nn(Cc3ccccc3)cc2C(=O)N2CCN(c3ncccn3)CC2)cc1OC`, the AC50 under setting [1] was 2.91 µM [rising, single point].
Regarding `Cc1ccc(S(=O)(=O)Oc2ccc(/C=C(/NC(=O)c3ccccc3)C(=O)NCC(=O)O)cc2)cc1`, the AC50 under setting [1] is 39.8 µM [rising, partial curve, poor fit].
As to `Nc1nnc(CSCc2ccc(Cl)cc2Cl)s1`, under setting [1], the AC50 was 6.51 µM [rising, partial curve, poor fit].
Still for that read-out and setting: for `CCc1ccccc1NC(=O)CNC(=O)CCc1nc2sc3c(c2c(=O)[nH]1)CCCC3` the value was 29.1 µM [falling, single point]; for `CCN(CC)S(=O)(=O)c1cccc(C(=O)NC(C(=O)NCCc2ccccn2)C(C)C)c1` (configuration not stated), 4.61 µM [rising, full curve, poor fit].
With `COc1ccc(NC(=S)N2CCN(C(c3ccccc3)c3ccccc3)CC2)c(OC)c1`, the AC50 reads like this: under setting [1], 12.6 µM [falling, single point]; under setting [2], 12.6 µM [rising, partial curve, poor fit].

The values above are taken from PubChem BioAssay AID493014 (National Center for Advancing Translational Sciences (NCATS), 2011).
